US4261885A (Shiraimatsu Shingaku Co., Ltd., priority 1978, dated 1981)

Experiment: general procedure: solution-phase peptide synthesis; active esters (ONp, OSu) with HOBT; azide fragment condensation (isoamylnitrite/)
Conditions: coupling step, hydrochloride (crude)

Substance | step yield
Boc-D-Trp-Lys[Cbz(o-Cl)]-Thr(Bzl)-Phe-OEt | yield=81%
Boc-D-Trp-Lys[Cbz(o-Cl)]-Thr(Bzl)-Phe-Thr(Bzl)-Ser(Bzl)-D-Asu-OBzl | yield=58%
Boc-Lys[Cbz(o-Cl)]-Asn-Phe-Phe-OEt | yield=86%
